From the supplement of paper PMC6411743 come the findings set out here.

Sequences of proteins named here, by UniProt entry; tags and fusion partners are left off. A change or cut given only in a name is not applied to a line headed by its entry.
UniProt Q9HBL8: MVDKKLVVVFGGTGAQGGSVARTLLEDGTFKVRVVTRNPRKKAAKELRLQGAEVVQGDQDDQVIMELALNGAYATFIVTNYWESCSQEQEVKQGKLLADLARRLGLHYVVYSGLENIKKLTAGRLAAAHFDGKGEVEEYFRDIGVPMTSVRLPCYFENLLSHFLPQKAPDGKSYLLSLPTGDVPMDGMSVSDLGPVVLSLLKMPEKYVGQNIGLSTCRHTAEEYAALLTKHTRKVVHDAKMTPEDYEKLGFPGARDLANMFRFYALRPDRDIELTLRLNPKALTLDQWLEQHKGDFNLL
UniProt Q9H1A4, whole entry: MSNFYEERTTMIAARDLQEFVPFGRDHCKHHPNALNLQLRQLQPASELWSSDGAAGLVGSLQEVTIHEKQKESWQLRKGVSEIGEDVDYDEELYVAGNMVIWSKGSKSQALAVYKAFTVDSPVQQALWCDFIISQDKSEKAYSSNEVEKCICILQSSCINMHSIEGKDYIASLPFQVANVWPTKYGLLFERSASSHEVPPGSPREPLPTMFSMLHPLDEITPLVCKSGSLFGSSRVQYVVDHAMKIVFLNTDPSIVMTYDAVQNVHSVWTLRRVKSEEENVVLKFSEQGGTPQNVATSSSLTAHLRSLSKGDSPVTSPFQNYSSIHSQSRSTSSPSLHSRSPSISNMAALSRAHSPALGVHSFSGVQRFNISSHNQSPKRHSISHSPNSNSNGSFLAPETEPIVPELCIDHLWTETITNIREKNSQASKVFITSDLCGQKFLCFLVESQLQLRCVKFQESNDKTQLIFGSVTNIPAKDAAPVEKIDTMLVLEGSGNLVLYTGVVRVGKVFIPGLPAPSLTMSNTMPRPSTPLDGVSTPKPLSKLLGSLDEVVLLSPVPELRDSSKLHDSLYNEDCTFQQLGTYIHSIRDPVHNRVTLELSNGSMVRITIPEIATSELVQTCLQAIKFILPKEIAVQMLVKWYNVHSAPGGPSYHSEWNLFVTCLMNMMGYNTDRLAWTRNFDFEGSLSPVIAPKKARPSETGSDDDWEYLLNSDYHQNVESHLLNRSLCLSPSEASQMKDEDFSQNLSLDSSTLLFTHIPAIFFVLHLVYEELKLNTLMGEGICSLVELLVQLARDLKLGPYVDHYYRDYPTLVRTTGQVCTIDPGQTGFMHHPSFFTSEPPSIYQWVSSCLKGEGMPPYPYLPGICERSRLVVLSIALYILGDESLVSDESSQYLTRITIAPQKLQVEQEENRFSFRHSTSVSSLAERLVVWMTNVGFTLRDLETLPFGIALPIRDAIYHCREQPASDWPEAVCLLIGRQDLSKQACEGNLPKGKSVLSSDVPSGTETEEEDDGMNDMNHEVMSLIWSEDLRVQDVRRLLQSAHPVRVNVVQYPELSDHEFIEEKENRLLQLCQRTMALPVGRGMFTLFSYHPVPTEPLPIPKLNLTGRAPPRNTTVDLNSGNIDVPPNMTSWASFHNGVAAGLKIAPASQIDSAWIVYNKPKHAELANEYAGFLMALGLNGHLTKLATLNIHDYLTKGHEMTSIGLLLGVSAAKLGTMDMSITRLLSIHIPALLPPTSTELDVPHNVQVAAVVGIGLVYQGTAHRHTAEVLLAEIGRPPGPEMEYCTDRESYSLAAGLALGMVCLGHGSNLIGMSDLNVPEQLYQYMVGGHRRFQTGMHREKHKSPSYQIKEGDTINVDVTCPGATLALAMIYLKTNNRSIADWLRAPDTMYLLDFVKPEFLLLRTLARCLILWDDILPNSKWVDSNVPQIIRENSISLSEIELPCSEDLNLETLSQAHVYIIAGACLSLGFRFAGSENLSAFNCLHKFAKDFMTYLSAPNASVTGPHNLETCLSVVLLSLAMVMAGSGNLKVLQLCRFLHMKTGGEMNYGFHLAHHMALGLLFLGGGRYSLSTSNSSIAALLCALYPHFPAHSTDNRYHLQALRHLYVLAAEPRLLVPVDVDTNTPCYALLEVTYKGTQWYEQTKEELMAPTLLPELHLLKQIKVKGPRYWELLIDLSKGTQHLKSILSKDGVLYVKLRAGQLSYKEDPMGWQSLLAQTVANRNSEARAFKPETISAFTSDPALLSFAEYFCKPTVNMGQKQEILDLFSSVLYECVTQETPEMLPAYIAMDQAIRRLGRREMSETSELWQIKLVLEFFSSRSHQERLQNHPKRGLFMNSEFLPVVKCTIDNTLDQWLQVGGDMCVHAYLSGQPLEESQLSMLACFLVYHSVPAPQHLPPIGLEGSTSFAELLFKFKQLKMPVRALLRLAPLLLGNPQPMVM
UniProt Q9H773: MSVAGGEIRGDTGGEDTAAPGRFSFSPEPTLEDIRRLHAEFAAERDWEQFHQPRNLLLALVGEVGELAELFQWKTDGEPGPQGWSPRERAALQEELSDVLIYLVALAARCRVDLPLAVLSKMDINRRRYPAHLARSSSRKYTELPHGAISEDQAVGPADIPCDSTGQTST
UniProt Q9H2D6: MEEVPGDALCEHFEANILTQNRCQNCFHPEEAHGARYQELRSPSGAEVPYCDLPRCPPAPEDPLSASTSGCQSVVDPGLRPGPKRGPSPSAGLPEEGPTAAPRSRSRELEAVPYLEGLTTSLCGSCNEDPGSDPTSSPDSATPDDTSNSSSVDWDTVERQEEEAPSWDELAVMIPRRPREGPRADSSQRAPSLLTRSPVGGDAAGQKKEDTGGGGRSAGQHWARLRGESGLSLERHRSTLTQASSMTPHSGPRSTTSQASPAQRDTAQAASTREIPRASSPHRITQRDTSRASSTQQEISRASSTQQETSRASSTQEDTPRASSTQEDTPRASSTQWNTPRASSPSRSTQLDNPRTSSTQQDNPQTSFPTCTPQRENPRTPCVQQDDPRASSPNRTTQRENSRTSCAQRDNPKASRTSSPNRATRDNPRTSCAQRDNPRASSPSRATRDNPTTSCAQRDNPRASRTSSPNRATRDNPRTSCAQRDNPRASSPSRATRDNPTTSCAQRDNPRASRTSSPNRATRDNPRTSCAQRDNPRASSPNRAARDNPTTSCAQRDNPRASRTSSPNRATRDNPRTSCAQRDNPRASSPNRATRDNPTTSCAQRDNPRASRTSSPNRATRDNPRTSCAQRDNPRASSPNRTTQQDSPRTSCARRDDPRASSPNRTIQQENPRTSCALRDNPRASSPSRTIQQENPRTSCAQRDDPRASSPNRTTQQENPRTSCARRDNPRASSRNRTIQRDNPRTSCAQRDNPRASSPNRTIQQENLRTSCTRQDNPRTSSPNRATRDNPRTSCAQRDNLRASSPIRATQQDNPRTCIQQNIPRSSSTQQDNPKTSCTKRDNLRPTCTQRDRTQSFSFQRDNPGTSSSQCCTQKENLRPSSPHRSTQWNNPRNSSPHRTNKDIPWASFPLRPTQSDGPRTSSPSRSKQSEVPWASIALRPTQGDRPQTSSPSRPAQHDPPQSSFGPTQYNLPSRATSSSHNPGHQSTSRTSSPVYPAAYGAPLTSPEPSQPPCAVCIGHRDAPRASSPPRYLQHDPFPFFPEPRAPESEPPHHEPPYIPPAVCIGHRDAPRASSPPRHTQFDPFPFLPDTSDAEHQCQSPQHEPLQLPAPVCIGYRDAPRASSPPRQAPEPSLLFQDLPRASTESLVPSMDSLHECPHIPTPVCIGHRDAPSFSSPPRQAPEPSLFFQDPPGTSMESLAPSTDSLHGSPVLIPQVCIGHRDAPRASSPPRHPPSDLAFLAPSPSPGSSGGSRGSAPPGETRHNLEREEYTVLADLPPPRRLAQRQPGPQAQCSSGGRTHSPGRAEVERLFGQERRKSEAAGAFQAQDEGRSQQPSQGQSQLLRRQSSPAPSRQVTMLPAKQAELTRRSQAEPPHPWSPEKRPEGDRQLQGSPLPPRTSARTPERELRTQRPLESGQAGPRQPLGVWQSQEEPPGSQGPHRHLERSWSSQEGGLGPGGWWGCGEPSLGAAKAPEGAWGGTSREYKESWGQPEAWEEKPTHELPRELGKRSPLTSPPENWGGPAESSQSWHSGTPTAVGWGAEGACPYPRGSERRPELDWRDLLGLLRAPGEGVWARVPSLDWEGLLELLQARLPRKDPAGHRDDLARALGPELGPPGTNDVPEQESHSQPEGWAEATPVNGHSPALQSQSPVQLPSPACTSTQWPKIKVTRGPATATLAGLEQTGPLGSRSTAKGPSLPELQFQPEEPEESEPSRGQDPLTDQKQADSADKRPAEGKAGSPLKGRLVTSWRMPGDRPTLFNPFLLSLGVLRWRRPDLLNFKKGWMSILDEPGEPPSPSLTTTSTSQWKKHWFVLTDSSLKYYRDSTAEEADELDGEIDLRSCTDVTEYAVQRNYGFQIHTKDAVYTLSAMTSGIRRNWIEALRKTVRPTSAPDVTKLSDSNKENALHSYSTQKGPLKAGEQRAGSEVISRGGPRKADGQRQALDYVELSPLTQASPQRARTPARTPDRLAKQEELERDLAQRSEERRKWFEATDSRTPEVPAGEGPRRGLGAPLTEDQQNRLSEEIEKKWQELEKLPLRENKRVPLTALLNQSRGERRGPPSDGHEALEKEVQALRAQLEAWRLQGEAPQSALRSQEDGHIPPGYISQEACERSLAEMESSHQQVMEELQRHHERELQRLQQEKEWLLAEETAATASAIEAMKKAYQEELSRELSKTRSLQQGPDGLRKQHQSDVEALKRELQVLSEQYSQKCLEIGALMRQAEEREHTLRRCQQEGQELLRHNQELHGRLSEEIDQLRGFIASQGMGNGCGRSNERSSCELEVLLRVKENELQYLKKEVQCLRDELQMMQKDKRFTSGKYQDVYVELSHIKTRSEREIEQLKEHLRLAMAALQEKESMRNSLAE
UniProt Q9H6T3, whole entry: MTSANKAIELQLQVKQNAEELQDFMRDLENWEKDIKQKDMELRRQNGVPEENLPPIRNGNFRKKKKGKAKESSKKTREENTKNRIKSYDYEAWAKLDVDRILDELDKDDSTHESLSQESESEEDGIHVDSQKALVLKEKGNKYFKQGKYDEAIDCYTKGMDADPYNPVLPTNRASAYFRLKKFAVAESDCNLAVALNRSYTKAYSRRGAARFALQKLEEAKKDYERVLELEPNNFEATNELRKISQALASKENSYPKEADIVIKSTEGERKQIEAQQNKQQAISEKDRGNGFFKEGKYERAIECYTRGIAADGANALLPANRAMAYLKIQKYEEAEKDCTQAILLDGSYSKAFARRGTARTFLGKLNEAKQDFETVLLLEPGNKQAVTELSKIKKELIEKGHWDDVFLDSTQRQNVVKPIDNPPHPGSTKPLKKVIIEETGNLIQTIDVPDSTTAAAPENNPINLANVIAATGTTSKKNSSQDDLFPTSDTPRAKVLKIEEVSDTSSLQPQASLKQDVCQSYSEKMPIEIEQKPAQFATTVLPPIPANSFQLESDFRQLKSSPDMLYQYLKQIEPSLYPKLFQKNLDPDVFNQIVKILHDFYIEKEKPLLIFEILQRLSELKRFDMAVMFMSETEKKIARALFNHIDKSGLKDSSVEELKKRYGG

± gives the standard deviation of the averaged measurements. The entries are a selection whose mix differs from that of the whole data set. Small differences around the control level are noise.

Compound in this assay: Nc1ncnc2c1ncn2[C@@H]1O[C@H](COP(=O)(O)OP(=O)(O)OP(=O)(O)O)[C@@H](O)[C@H]1O [adenosine triphosphate]
Put plainly: NP40-soluble protein abundance relative to vehicle (solubility fold change) (ratio); higher = more soluble protein in presence of ATP. The essentials:
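Eight concentrations, 0.1 to 10 mM, were tested on Jurkat crude lysate for 10 min at room temperature and then 3 min at 37 °C, in three independent experiments. The lysate was solubilised with 0.8% NP40 and benzonase, ultracentrifuged, and the supernatant TMT-labelled for LC-MS/MS. Each value is the fold change against the detergent-processed vehicle in its own replicate, from vsn-normalised intensities.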

Take NMRAL1 (UniProt Q9HBL8): the NP40-soluble protein abundance runs as follows: (concentration: 0.1mM) 1.01 ± 0.052; (concentration: 0.5mM) 1.01 ± 0.032.
Consider ANAPC1 (UniProt Q9H1A4), for which the NP40-soluble protein abundance by setting is: (concentration: 0.1mM) 1.03 ± 0.045; (concentration: 0.5mM) 1.04 ± 0.029.
Taken in the same sequence, the figures for UniProt Q9H773 were 0.783 ± 0.12 and 0.658 ± 0.087.
Taken in the same sequence, the figures for UniProt Q9H2D6 and related entries were 1.06 ± 0.052 and 1.02 ± 0.084.
Regarding RPAP3 (UniProt Q9H6T3), the NP40-soluble protein abundance runs as follows: (concentration: 0.1mM) 0.985 ± 0.023; (concentration: 0.5mM) 1.03 ± 0.038.
